Test results reported in PubChem BioAssay AID1273 (Columbia University Molecular Screening Center, 2008).
In all, about 130,000 compounds went through this assay and about 1,200 (0.92%) were called active. The inconclusive results got no clear call from the source; some entries with a clear call stand among them for comparison.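 The calls were made as follows: active = inhibition above the mean plus 3 SD, with well images judged a real hit on visual review (cut at about 60% in these data, passing the limit was not always enough); inconclusive = inhibition over the cutoff but images rejected on review; inactive = inhibition not above the cutoff.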

experiment: inhibitors of insulin promoter-driven GFP, primary screen, imaging, TRM-6 cells (human fetal islet line), eGFP reporter, cell count (AID 1273); conditions: at 2 µM, hits give high values, reporter expression induced with tamoxifen

| Compound | inhibition |
| --- | --- |
| O=C(NC(Cc1ccccc1)c1ccc2c(c1)OCCCO2)c1ccccc1F (centres undefined) | inactive: -11.4% |
| C/C(=N\Nc1nc2ccccc2[nH]1)c1ccc(N2CCOCC2)cc1 | active: 75% |
| O=C(CSc1oc(-c2ccco2)nc1S(=O)(=O)c1ccccc1)NCC1CCCO1 (centres undefined) | inconclusive: 80% |
| O=C(Cn1cnc2c(cnn2-c2ccc(F)cc2)c1=O)N1CCN(c2ccccc2)CC1 | inconclusive: 81.4% |
| O=C(COc1ccccc1Cl)N1CCN(c2ccc([N+](=O)[O-])c(N3CCOCC3)c2)CC1 | inactive: 16.7% |
| CCc1ccc(S(=O)(=O)c2nnn3c2nc(NCCNC(C)=O)c2ccccc23)cc1 | active: 83.3% |
| Cc1[nH]c2ccc(F)cc2c(=O)c1SC(F)(F)C(F)F | inconclusive: 71.4% |
| CCOc1ccc2nc(-c3ccccc3)[nH]c2c1 | active: 85.7% |
| c1ccc(Cn2nnc3c(N4CCc5ccccc5C4)ncnc32)cc1 | active: 81.8% |
| CCN1CCCC1CNC(=O)C(=O)NC(C)C (centres undefined) | inactive: 7.69% |
| C/C(=C\c1ccco1)C1C(C#N)=C(N)OC2=C1C(=O)CC(C)(C)C2 (centres undefined) | inconclusive: 75% |
| O=C(N/N=C/c1cccc(O)c1)c1cc(-c2ccc3c(c2)OCO3)n[nH]1 | inactive: 50% |
| Cc1cc2c(cc1C)CSC(c1ccc3ccccc3c1O)SC2 | active: 63% |
| O=C(CCCc1cccs1)Nc1nc2c(s1)CCCC2 | inconclusive: 75% |
| Cc1ccc(Cl)cc1N1CCN(C(=O)C2CCN(c3nnc(-n4cccc4)s3)CC2)CC1 | inconclusive: 85.7% |
| CN1CCn2c1nc(N1CCOCC1)nc2=O | inconclusive: 75.9% |
| Cc1ccc(N2CC(C(=O)NCc3cccnc3)CC2=O)cc1 (centres undefined) | inconclusive: 81.2% |
| O=C(CN1CCN(Cc2ccc(Cl)cc2)CC1)N/N=C/C=C/c1ccccc1[N+](=O)[O-] | inconclusive: 68.8% |
| Cc1ccc(NC(=O)c2cccc(S(=O)(=O)N(C)c3ccccc3)c2)cc1S(=O)(=O)N1CCOCC1 | inactive: -3.13% |
| COc1cccc(-c2nnc(-c3ccc(C(F)(F)F)cc3)o2)c1OC | inconclusive: 71% |
| O=c1oc(-c2cccs2)nc2sc3c(c12)CCCC3 | active: 67.7% |
| CCCCOC(=O)c1nc[nH]c1C(=O)OCCCC | inconclusive: 71.4% |
| COc1ccc(-c2nnc(N)s2)cc1 | active: 75% |
| CCCNc1nc(OC(C(F)(F)F)C(F)(F)F)nc(OC(C(F)(F)F)C(F)(F)F)n1 | inconclusive: 78.6% |

| Compound | inhibition |
| --- | --- |
| COc1ccc(C(=O)N2CCN(C(C)=O)CC2)cc1S(=O)(=O)NCc1ccc(Cl)cc1 | inconclusive: 72.7% |
| O=S(=O)(Nc1nc2ccccc2nc1-[n+]1ccccc1)c1ccc(Cl)cc1 | inactive: -37% |
| N#CC1=C2SCN(Cc3ccccc3)CN2C(=O)CC1c1ccc2c(c1)OCO2 (centres undefined) | inconclusive: 57.7% |
| CN(C)S(=O)(=O)c1ccc(N2CCCC2)c(C(=O)NCC2CCCCC2)c1 | inconclusive: 70.6% |
| CCOc1ccc(NC(=O)c2cnccn2)cc1 | active: 94.3% |
| N#Cc1c(N2CCN(C(=O)c3ccco3)CC2)nc(-c2ccccc2)c2c1CCCC2 | inconclusive: 71.4% |
| Cc1ccc(SCCC(=O)N/N=C/c2ccncc2)cc1 | inconclusive: 75% |
| O=C(NNC(=S)NCC1CCCO1)c1cccc(S(=O)(=O)N2CCOCC2)c1 (centres undefined) | inconclusive: 72.2% |
| O=C(O)C1CCCCC1C(=O)Nc1ccc(Cl)cc1 (centres undefined) | inconclusive: 75% |
| Cc1cccc(C)c1NC(=O)COC(=O)Cc1ccsc1 | active: 66.7% |
| COc1cc(OC)c(S(=O)(=O)N2CCCCC2)cc1S(=O)(=O)N1CCCCC1 | inconclusive: 95.3% |
| C=CCN1CN(S(=O)(=O)c2cccs2)c2nc3ccccc3nc21 | inconclusive: 72.7% |
| COc1ccc(CNC(=O)C2CCN(S(=O)(=O)N3CCOCC3)CC2)cc1 | inconclusive: 78.6% |
| COc1ccc(S(=O)(=O)Nc2ccc(C)cc2)cc1OC | inconclusive: 76.9% |
| CC(C)c1ccc2c(c1)C(c1ccc(N3CCOCC3)cc1)=NNC(c1cccs1)=N2 | inactive: 20.8% |
| COC(=O)C1CCN(C(=O)C23CCC(C)(C(=O)O2)C3(C)C)CC1 (centres undefined) | inconclusive: 79% |
| CCOC(=O)c1sc(NC(=O)CSc2nccc(C)n2)nc1C | inactive: 6.67% |
| O=C(Nc1ccc2c(c1)OCO2)OCc1ccccc1 | active: 100% |
| CCN(c1ccccc1)S(=O)(=O)c1ccc(C(=O)Nc2nnc(C3CC3)o2)cc1 | active: 77.8% |
| Fc1ccc(-c2nnn(Cc3nc4ccccc4s3)n2)cc1 | inactive: -78.8% |
| COc1ccc(S(=O)(=O)NCCc2ccc(F)cc2)cc1 | inconclusive: 93.1% |
| CCCCn1c(=O)c(CCC(=O)OCC(=O)NCc2ccc(OC)c(OC)c2)nc2ccccc21 | inconclusive: 81.8% |
| CCS(=O)(=O)c1nc2ccccc2n1CC(=O)N1CCCCC1 | inactive: 8.57% |
| CN(C)c1cccc2c(C=C(C#N)C#N)ccc(N(C)C)c12 | inactive: 34.4% |

Ordered by count of non-hydrogen atoms (largest number first): part of the list above

| Compound | inhibition |
| --- | --- |
| Cc1ccc(NC(=O)c2cccc(S(=O)(=O)N(C)c3ccccc3)c2)cc1S(=O)(=O)N1CCOCC1 | inactive: -3.13% |
| CCCCn1c(=O)c(CCC(=O)OCC(=O)NCc2ccc(OC)c(OC)c2)nc2ccccc21 | inconclusive: 81.8% |
| Cc1ccc(Cl)cc1N1CCN(C(=O)C2CCN(c3nnc(-n4cccc4)s3)CC2)CC1 | inconclusive: 85.7% |
| CC(C)c1ccc2c(c1)C(c1ccc(N3CCOCC3)cc1)=NNC(c1cccs1)=N2 | inactive: 20.8% |
| O=C(CSc1oc(-c2ccco2)nc1S(=O)(=O)c1ccccc1)NCC1CCCO1 (centres undefined) | inconclusive: 80% |
| N#CC1=C2SCN(Cc3ccccc3)CN2C(=O)CC1c1ccc2c(c1)OCO2 (centres undefined) | inconclusive: 57.7% |
| COc1cc(OC)c(S(=O)(=O)N2CCCCC2)cc1S(=O)(=O)N1CCCCC1 | inconclusive: 95.3% |
| COc1ccc(CNC(=O)C2CCN(S(=O)(=O)N3CCOCC3)CC2)cc1 | inconclusive: 78.6% |
| c1ccc(Cn2nnc3c(N4CCc5ccccc5C4)ncnc32)cc1 | active: 81.8% |
| C/C(=N\Nc1nc2ccccc2[nH]1)c1ccc(N2CCOCC2)cc1 | active: 75% |
| Cc1cc2c(cc1C)CSC(c1ccc3ccccc3c1O)SC2 | active: 63% |
| Cc1ccc(N2CC(C(=O)NCc3cccnc3)CC2=O)cc1 (centres undefined) | inconclusive: 81.2% |
| CN(C)c1cccc2c(C=C(C#N)C#N)ccc(N(C)C)c12 | inactive: 34.4% |
| Cc1ccc(SCCC(=O)N/N=C/c2ccncc2)cc1 | inconclusive: 75% |
| O=C(Nc1ccc2c(c1)OCO2)OCc1ccccc1 | active: 100% |
| O=c1oc(-c2cccs2)nc2sc3c(c12)CCCC3 | active: 67.7% |
| CCOc1ccc(NC(=O)c2cnccn2)cc1 | active: 94.3% |
| CN1CCn2c1nc(N1CCOCC1)nc2=O | inconclusive: 75.9% |
| COc1ccc(-c2nnc(N)s2)cc1 | active: 75% |

Remaining list, next part:

| Compound | inhibition |
| --- | --- |
| CC(C)c1ccccc1NC(=O)Cn1c(-c2ccccc2Cl)nc2ccccc21 | inconclusive: 60% |
| COC(=O)CNC(c1ccccc1)c1cc(Br)ccc1NS(=O)(=O)c1ccc(C)cc1 (centres undefined) | inactive: -75% |
| C#CCNC(=O)/C=C/c1ccc(C)cc1 | inconclusive: 60% |
| C=CCNc1ncnc2c1[nH]c1ccc(C)cc12 | inconclusive: 81.2% |
| N#C/C(=C\c1ccc(-c2ccc(S(=O)(=O)N3CCOCC3)cc2)o1)C(=O)NC1CC1 | active: 61.5% |
| CC/C(=N\NC(=O)c1ccc2c(c1)OCO2)C12CC3CC(CC(C3)C1)C2 | inactive: 33.3% |
| CCOC(=O)N1CCN(C(=O)CSCC(=O)Nc2nc(-c3ccc(OC)cc3)cs2)CC1 | inconclusive: 90% |
| N#C/C(=C\c1cccs1)c1nc2ccccc2[nH]1 | active: 85.2% |
| CC12CC(c3ccccc3O1)C(C(=O)N1CCOCC1)C(=O)N2 (centres undefined) | active: 71.4% |
| CCN(CC)CCNC(CC(=O)Nc1ccc(Cl)cc1Cl)C(=O)O (centres undefined) | active: 93.8% |
| O=C(O)c1cc([N+](=O)[O-])cc2c1nnn2O | inactive: 60% |
| S=C(Nc1ccccc1)N1CCN(c2ccc(N3CCOCC3)nn2)CC1 | active: 75% |
| Cc1nc2c(-c3ccccc3)c(C)nn2c(C)c1CCC(=O)N1CCOCC1 | inconclusive: 76.9% |
| O=C(NCc1cccc(Cl)c1)c1cnccn1 | inconclusive: 75% |
| O=C(c1ccc(-n2c(SCc3cccc(F)c3)nc3ccccc3c2=O)cc1)N1CCOCC1 | inactive: -82.3% |
| COC(=O)CCc1c(C)[nH]c(C(=O)OCc2ccccc2)c1C | inconclusive: 78.6% |
| CCCNC(=O)c1cc(-c2ccco2)on1 | inactive: -356% |
| O=C(CN(Cc1cccs1)C(=O)CSc1nnc(COc2ccccc2)o1)NC1CCCC1 | inactive: 18.8% |
| Cc1cccc(N2CC(C)Cn3c2nc2c3c(=O)n(CC(=O)OCc3ccccc3)c(=O)n2C)c1 (centres undefined) | active: 87.5% |
| Cc1ccc(-c2nnc3n2CCCCC3)cc1 | inactive: 22.9% |
| Cc1ccc(/C=[N+](/C)[O-])cc1 | inactive: 20% |
| O=C(c1ccc(F)cc1)N1CCCCC(Sc2nnc3ccccn23)C1=O (centres undefined) | inconclusive: 75% |
| Brc1ccc2ncnc(NCc3ccccc3)c2c1 | inconclusive: 92.9% |
| Cc1ccccc1C(=O)N1CCN(c2ccccn2)CC1 | inconclusive: 83.3% |

Two entries from above, reformatted:
Compound,inhibition
CCCCOC(=O)c1nc[nH]c1C(=O)OCCCC,inconclusive: 71.4%
COc1ccc(-c2nnc(N)s2)cc1,active: 75%

Following part.

| Compound | inhibition |
| --- | --- |
| CC(C)C1C(C#N)=C(N)Oc2n[nH]c(-c3ccc4ccccc4c3)c21 (centres undefined) | inactive: -10% |
| O=S(=O)(NCC(c1cccnc1)N1CCN(c2ccccc2)CC1)c1cc(F)ccc1F (centres undefined) | inactive: 10.5% |
| O=C(Nc1ccc(Cl)cc1)Nc1ccc(N2CCOCC2)cc1 | inconclusive: 75% |
| CCC(=O)Nc1nonc1-c1nc2ccccc2n1Cc1ccccc1 | inconclusive: 76.9% |
| CCc1c(O)cc2n(c1=O)-c1ccccc1C2(C)C | inconclusive: 75.9% |
| O=C(c1ccccc1)c1ccccc1C(=O)N1CCCC1 | inconclusive: 75% |
| c1ccc(C(Cc2nc(-c3ccncc3)no2)c2ccccc2)cc1 | inconclusive: 75% |
| COc1cccc(N2C(=O)N(c3ccccc3Cl)C3CS(=O)(=O)CC32)c1 (centres undefined) | inactive: -7.41% |
| COc1ccc(C(=O)N(Cc2ccc(N(C)C)cc2)C2CCS(=O)(=O)C2)cc1 (centres undefined) | inconclusive: 81.8% |
| CCOc1ccc(-c2nc(C#N)c(N3CCN(CC)CC3)o2)cc1 | inconclusive: 71.4% |
| Nc1ccc(N=Nc2ccccc2)c(N)n1 | inactive: -4.76% |
| CCCCCOC(=O)Nc1nnc(CCCCC)s1 | inconclusive: 78.6% |
| c1ccc(N2CCN(c3nc4ccccc4[nH]3)CC2)nc1 | inconclusive: 72.7% |
| COC(=O)c1cc(OC)c(OC)cc1NC(=O)CSc1nnnn1Cc1ccccc1 | inconclusive: 75% |
| c1ccc2[nH]c(NC3=NCCC3)nc2c1 | inconclusive: 71.4% |
| Cc1ccc(/C=N/NC(=O)C2=NNC(c3ccccc3)(c3ccccc3)C2)c(O)c1 | inconclusive: 52.3% |
| Cc1ccc(-n2[nH]c(C)c(/C=N/NC(=O)c3cccc([N+](=O)[O-])c3)c2=O)cc1C | inconclusive: 70.4% |
| O=C(NN=C1CCN(Cc2ccccc2)CC1)c1cccc(S(=O)(=O)Nc2ccccc2Cl)c1 | inactive: 34.2% |
| Cc1nnc(OC(C)C)c2nn(-c3ccccc3F)c(C)c12 | inconclusive: 75.9% |
| CC(C)(C)c1ccc(C(=O)Nc2cccc([N+](=O)[O-])c2)cc1 | active: 72.4% |
| Cc1nnc(SCC(=O)c2ccc(Br)cc2)s1 | active: 78.6% |
| COC(=O)Cn1c(CN2CCC(Cc3ccccc3)CC2)nc2c1c(=O)n(C)c(=O)n2C | inconclusive: 80% |
